Results are given in words; binding and its absence hold for the method and conditions named. Some entries that bind do so weakly or less than the wild type.

In assay [1] the target is hnRNPDL-3 (human heterogeneous ribonucleoprotein D-like, isoform 3) (human) (UniProt O14979). In words: Th-T fluorescence + negative-stain TEM.
Assay [2] has the same target. Description: SEC. (In general: SEC sorts molecules by how far they enter the pores of the column.)
In assay [3] the target is hnRNPDL-2 D259H (LGMDD3-associated variant) (human) (UniProt O14979). Description: ultracentrifugation on a glycerol cushion + negative-stain TEM.
For assay [4], the target named is hnRNPDL-2 D259N (LGMDD3-associated variant) (human) (UniProt O14979). Described as above.

B1: hnRNPDL-3 (human heterogeneous ribonucleoprotein D-like, isoform 3) (protein, UniProt O14979-3 1-244)
chain: MEDMNEYSNIEEFAEGSKINASKNQQDDGKMFIGGLSWDTSKKDLTEYLSRFGEVVDCTIKTDPVTGRSRGFGFVLFKDAASVDKVLELKEHKLDGKLIDPKRAKALKGKEPPKKVFVGGLSPDTSEEQIKEYFGAFGEIENIELPMDTKTNERRGFCFITYTDEEPVKKLLESRYHQIGSGKCEIKVAQPKEVYRQQQQQQKGGRGAAAGGRGGTRGRGRGQQSTYGKASRGGGNHQNNYQPY
In the case of B1, the binding entry is “no binding (tested: 50 µM)” in assay [1] and “no binding” in assay [2].

B2: hnRNPDL-2 D259H (LGMDD3-associated variant) (protein, UniProt O14979-2 1-301)
chain: MEDMNEYSNIEEFAEGSKINASKNQQDDGKMFIGGLSWDTSKKDLTEYLSRFGEVVDCTIKTDPVTGRSRGFGFVLFKDAASVDKVLELKEHKLDGKLIDPKRAKALKGKEPPKKVFVGGLSPDTSEEQIKEYFGAFGEIENIELPMDTKTNERRGFCFITYTDEEPVKKLLESRYHQIGSGKCEIKVAQPKEVYRQQQQQQKGGRGAAAGGRGGTRGRGRGQGQNWNQGFNNYYDQGYGNYNSAYGGDQNYSGYGGYHYTGYNYGNYGYGQGYADYSGQQSTYGKASRGGGNHQNNYQPY
Regarding B2, the binding result in assay [3] is on record as “binds weakly”.

B3: hnRNPDL-2 D259N (LGMDD3-associated variant) (protein, UniProt O14979-2 1-301)
chain: MEDMNEYSNIEEFAEGSKINASKNQQDDGKMFIGGLSWDTSKKDLTEYLSRFGEVVDCTIKTDPVTGRSRGFGFVLFKDAASVDKVLELKEHKLDGKLIDPKRAKALKGKEPPKKVFVGGLSPDTSEEQIKEYFGAFGEIENIELPMDTKTNERRGFCFITYTDEEPVKKLLESRYHQIGSGKCEIKVAQPKEVYRQQQQQQKGGRGAAAGGRGGTRGRGRGQGQNWNQGFNNYYDQGYGNYNSAYGGDQNYSGYGGYNYTGYNYGNYGYGQGYADYSGQQSTYGKASRGGGNHQNNYQPY
In the case of B3, the binding entry in assay [4] was “binds weakly”.

The record behind these values is article doi:10.1101/2022.08.24.503855.
